{"source": "PubChem BioAssay AID1224830 – NIAID | 2016", "assay": "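Genes whose knock-down alters the TNF-alpha reporter response to LPS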 (primary screen)", "system": "human THP-1 monocytic leukaemia cells, TNF dual-luciferase reporter clone, PMA-differentiated to macrophage-like cells", "reagent": "siRNA pool against human genes, 50 nM", "duration": "LPS for 4 h, given about 3 days after siRNA transfection", "treatment": "bacterial LPS (TLR4 ligand), 10 ng/ml", "measured": "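TNF firefly reporter luminescence divided by renilla, normalised to the plate median, then turned into a robust z-score for each replicate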", "scale": "TNF reporter robust z-score: higher = stronger TNF reporter response to LPS", "active means": "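Each well counts as active if its z-score is over 2.8 or under -1.5; controls are left without a call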", "note": "In all, the deposit lists about 18,000 reagents; shown is a random part of them. About 2,900 of all reagents (16%) were called active. 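Calls are made per well; low scores hint the gene aids the LPS response, high scores that it dampens it.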 Entries without a mark were called inactive. Repeated entries: four replicate wells of each siRNA pool. No sequences are given here."}
{"Gene":"ALKBH4 (alkB homolog 4, lysine demethylase)","TNF reporter robust z-score":0.92}
{"Gene":"ALKBH4 (alkB homolog 4, lysine demethylase)","TNF reporter robust z-score":0.96}
{"Gene":"ALKBH4 (alkB homolog 4, lysine demethylase)","TNF reporter robust z-score":-0.07}
{"Gene":"ALKBH4 (alkB homolog 4, lysine demethylase)","TNF reporter robust z-score":0.74}
{"Gene":"SLC25A51","TNF reporter robust z-score":-0.32}
{"Gene":"SLC25A51","TNF reporter robust z-score":-0.63}
{"Gene":"SLC25A51","TNF reporter robust z-score":0.34}
{"Gene":"SLC25A51","TNF reporter robust z-score":-0.04}
{"Gene":"SNW1 (SNW domain containing 1)","TNF reporter robust z-score":-1.47}
{"Gene":"SNW1 (SNW domain containing 1)","TNF reporter robust z-score":"-2.01 (active)"}
{"Gene":"SNW1 (SNW domain containing 1)","TNF reporter robust z-score":"-1.85 (active)"}
{"Gene":"SNW1 (SNW domain containing 1)","TNF reporter robust z-score":-1.22}
{"Gene":"TMOD3 (tropomodulin 3)","TNF reporter robust z-score":-0.19}
{"Gene":"TMOD3 (tropomodulin 3)","TNF reporter robust z-score":0.61}
{"Gene":"TMOD3 (tropomodulin 3)","TNF reporter robust z-score":0.45}
{"Gene":"TMOD3 (tropomodulin 3)","TNF reporter robust z-score":0.21}
{"Gene":"EFHD2 (EF-hand domain family member D2)","TNF reporter robust z-score":0.67}
{"Gene":"EFHD2 (EF-hand domain family member D2)","TNF reporter robust z-score":0.83}
{"Gene":"EFHD2 (EF-hand domain family member D2)","TNF reporter robust z-score":2.17}
{"Gene":"EFHD2 (EF-hand domain family member D2)","TNF reporter robust z-score":-0.26}
{"Gene":"NEXN (nexilin F-actin binding protein)","TNF reporter robust z-score":-0.36}
{"Gene":"NEXN (nexilin F-actin binding protein)","TNF reporter robust z-score":-0.92}
{"Gene":"NEXN (nexilin F-actin binding protein)","TNF reporter robust z-score":-0.37}
{"Gene":"NEXN (nexilin F-actin binding protein)","TNF reporter robust z-score":0.07}
{"Gene":"ALDH3B2 (aldehyde dehydrogenase 3 family member B2)","TNF reporter robust z-score":1.14}
{"Gene":"ALDH3B2 (aldehyde dehydrogenase 3 family member B2)","TNF reporter robust z-score":2.17}
{"Gene":"ALDH3B2 (aldehyde dehydrogenase 3 family member B2)","TNF reporter robust z-score":0.84}
{"Gene":"ALDH3B2 (aldehyde dehydrogenase 3 family member B2)","TNF reporter robust z-score":1.77}
{"Gene":"SAFB2 (scaffold attachment factor B2)","TNF reporter robust z-score":-0.22}
{"Gene":"SAFB2 (scaffold attachment factor B2)","TNF reporter robust z-score":0.31}
{"Gene":"SAFB2 (scaffold attachment factor B2)","TNF reporter robust z-score":-0.51}
{"Gene":"SAFB2 (scaffold attachment factor B2)","TNF reporter robust z-score":-0.31}
{"Gene":"IQSEC1 (IQ motif and Sec7 domain ArfGEF 1)","TNF reporter robust z-score":-0.3}
{"Gene":"IQSEC1 (IQ motif and Sec7 domain ArfGEF 1)","TNF reporter robust z-score":-0.84}
{"Gene":"IQSEC1 (IQ motif and Sec7 domain ArfGEF 1)","TNF reporter robust z-score":-1.14}
{"Gene":"IQSEC1 (IQ motif and Sec7 domain ArfGEF 1)","TNF reporter robust z-score":0.24}
{"Gene":"TXNRD2 (thioredoxin reductase 2)","TNF reporter robust z-score":-0.38}
{"Gene":"TXNRD2 (thioredoxin reductase 2)","TNF reporter robust z-score":-0.09}
{"Gene":"TXNRD2 (thioredoxin reductase 2)","TNF reporter robust z-score":0}
{"Gene":"TXNRD2 (thioredoxin reductase 2)","TNF reporter robust z-score":1.09}
{"Gene":"LEO1 (LEO1 component of Paf1/RNA polymerase II complex)","TNF reporter robust z-score":0.17}
{"Gene":"LEO1 (LEO1 component of Paf1/RNA polymerase II complex)","TNF reporter robust z-score":-0.35}
{"Gene":"LEO1 (LEO1 component of Paf1/RNA polymerase II complex)","TNF reporter robust z-score":-1.07}
{"Gene":"LEO1 (LEO1 component of Paf1/RNA polymerase II complex)","TNF reporter robust z-score":0.31}
{"Gene":"ACVRL1 (activin A receptor like type 1)","TNF reporter robust z-score":"-1.85 (active)"}
{"Gene":"ACVRL1 (activin A receptor like type 1)","TNF reporter robust z-score":"-1.56 (active)"}
{"Gene":"ACVRL1 (activin A receptor like type 1)","TNF reporter robust z-score":-1.06}
{"Gene":"ACVRL1 (activin A receptor like type 1)","TNF reporter robust z-score":-0.99}
{"Gene":"TRIM71 (tripartite motif containing 71)","TNF reporter robust z-score":"3.32 (active)"}
{"Gene":"TRIM71 (tripartite motif containing 71)","TNF reporter robust z-score":-0.46}
{"Gene":"TRIM71 (tripartite motif containing 71)","TNF reporter robust z-score":-0.05}
{"Gene":"TRIM71 (tripartite motif containing 71)","TNF reporter robust z-score":"-1.61 (active)"}
{"Gene":"ADRA2C (adrenoceptor alpha 2C)","TNF reporter robust z-score":2.71}
{"Gene":"ADRA2C (adrenoceptor alpha 2C)","TNF reporter robust z-score":0.91}
{"Gene":"ADRA2C (adrenoceptor alpha 2C)","TNF reporter robust z-score":-0.38}
{"Gene":"ADRA2C (adrenoceptor alpha 2C)","TNF reporter robust z-score":0.34}
{"Gene":"WDR4","TNF reporter robust z-score":0.49}
{"Gene":"WDR4","TNF reporter robust z-score":-0.37}
{"Gene":"WDR4","TNF reporter robust z-score":-1.05}
{"Gene":"WDR4","TNF reporter robust z-score":0.79}
